The list shows a part of the results. Small differences around the control level are noise.

By UniProt entry, the sequences of proteins in these tests, tags left out. Where a name states a change or a piece, a line headed by the entry shows the natural chain unless it says otherwise.
UniProt Q8BTI7: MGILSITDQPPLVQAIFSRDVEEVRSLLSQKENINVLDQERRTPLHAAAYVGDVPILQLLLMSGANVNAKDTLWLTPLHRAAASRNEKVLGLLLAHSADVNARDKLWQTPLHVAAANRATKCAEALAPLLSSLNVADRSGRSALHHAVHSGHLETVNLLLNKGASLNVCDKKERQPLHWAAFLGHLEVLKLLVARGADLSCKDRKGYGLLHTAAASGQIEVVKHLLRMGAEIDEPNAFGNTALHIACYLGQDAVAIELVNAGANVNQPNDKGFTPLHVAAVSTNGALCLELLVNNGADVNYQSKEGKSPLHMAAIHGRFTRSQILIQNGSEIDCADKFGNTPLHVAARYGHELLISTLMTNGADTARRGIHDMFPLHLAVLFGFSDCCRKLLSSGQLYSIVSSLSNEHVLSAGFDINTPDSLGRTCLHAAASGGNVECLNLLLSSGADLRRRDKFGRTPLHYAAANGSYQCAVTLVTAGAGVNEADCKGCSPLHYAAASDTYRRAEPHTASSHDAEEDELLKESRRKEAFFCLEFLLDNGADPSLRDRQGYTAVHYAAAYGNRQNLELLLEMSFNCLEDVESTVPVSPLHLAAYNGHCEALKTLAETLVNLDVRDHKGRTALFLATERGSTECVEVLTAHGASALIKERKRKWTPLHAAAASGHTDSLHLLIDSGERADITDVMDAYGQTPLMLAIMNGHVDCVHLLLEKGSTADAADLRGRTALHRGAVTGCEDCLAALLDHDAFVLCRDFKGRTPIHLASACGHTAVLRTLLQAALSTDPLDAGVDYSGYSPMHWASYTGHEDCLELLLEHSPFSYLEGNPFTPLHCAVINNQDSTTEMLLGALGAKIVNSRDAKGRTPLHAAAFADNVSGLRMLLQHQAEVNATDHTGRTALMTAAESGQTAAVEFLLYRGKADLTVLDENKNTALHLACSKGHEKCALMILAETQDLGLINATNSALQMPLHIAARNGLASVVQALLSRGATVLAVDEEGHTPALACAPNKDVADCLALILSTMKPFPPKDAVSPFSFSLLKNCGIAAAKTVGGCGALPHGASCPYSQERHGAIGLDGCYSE
UniProt Q8BK67, whole entry: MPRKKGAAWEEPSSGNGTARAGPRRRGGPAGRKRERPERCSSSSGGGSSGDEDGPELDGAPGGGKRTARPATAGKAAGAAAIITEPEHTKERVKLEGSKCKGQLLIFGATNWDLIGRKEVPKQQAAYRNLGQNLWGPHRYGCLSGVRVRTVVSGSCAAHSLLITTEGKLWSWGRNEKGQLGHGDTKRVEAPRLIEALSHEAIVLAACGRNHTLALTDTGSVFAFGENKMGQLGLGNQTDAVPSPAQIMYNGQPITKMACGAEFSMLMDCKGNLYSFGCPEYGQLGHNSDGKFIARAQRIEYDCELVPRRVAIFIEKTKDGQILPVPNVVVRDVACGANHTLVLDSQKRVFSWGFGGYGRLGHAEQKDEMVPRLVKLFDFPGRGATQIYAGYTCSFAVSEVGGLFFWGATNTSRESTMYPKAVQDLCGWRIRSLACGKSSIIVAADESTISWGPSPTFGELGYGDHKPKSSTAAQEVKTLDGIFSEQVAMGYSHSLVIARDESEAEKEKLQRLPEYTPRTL
UniProt Q8BR07: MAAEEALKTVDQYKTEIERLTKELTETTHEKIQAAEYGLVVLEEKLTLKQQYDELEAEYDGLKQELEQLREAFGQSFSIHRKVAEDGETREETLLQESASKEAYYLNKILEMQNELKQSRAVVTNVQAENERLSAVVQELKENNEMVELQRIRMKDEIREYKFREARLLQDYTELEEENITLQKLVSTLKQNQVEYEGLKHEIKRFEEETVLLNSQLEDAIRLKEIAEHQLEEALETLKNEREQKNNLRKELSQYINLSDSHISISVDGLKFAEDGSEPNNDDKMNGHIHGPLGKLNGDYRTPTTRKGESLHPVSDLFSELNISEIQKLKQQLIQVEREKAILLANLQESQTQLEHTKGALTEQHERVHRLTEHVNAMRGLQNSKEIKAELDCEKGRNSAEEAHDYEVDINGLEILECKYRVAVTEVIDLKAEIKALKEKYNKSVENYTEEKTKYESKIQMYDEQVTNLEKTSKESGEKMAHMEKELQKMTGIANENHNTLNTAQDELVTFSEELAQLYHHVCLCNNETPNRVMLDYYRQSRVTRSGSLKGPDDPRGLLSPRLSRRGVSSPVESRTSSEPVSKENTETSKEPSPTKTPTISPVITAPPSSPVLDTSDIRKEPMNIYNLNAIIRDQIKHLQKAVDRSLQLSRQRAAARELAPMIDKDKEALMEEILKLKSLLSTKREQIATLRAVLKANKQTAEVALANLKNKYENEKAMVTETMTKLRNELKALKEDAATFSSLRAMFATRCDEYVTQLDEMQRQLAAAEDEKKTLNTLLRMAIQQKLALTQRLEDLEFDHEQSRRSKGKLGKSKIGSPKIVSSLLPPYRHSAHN
UniProt Q8BMS4: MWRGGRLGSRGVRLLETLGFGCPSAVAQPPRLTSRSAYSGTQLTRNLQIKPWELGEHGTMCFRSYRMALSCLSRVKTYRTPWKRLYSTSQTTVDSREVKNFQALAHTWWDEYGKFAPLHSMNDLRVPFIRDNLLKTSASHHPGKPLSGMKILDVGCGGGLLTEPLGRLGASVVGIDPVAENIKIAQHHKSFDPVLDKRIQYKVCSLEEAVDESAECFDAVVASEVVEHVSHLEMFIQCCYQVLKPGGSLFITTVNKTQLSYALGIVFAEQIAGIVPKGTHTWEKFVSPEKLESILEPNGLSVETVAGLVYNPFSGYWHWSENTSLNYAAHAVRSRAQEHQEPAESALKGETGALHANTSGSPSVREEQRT
UniProt Q8BL66: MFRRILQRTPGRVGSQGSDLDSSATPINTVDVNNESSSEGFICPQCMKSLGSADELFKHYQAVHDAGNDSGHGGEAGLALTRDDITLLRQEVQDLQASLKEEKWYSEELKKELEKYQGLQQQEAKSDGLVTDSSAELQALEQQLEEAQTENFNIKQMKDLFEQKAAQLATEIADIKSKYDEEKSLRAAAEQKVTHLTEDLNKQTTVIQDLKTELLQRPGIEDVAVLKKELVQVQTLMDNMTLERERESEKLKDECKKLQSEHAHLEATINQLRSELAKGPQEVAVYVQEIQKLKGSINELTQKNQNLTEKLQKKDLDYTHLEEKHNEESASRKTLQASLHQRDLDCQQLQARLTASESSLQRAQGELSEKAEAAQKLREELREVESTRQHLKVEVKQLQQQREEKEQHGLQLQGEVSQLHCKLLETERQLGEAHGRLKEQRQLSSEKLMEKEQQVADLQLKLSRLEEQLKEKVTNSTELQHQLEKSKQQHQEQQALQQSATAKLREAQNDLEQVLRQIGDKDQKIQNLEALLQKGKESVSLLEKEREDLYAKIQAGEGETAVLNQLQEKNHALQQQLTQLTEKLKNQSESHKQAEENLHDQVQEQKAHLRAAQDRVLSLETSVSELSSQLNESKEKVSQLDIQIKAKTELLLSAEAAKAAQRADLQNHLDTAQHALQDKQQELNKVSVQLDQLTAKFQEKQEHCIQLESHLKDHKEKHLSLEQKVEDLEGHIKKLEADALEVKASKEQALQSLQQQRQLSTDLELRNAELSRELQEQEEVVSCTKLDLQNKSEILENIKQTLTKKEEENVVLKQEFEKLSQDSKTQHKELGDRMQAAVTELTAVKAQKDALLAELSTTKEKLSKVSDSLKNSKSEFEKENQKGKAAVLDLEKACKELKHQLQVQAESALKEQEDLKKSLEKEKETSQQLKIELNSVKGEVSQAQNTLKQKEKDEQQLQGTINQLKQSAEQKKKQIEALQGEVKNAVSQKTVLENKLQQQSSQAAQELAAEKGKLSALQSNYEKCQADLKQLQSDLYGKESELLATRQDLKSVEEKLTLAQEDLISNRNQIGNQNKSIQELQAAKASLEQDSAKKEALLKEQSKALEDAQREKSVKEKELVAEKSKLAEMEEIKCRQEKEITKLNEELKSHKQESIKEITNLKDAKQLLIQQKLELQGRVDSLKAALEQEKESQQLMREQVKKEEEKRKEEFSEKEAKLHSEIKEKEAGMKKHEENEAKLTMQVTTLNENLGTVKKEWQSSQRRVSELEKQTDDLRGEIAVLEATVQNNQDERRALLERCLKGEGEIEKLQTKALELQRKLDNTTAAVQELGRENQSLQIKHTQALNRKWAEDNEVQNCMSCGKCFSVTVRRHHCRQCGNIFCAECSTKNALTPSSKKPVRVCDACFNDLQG
UniProt Q8BTK5: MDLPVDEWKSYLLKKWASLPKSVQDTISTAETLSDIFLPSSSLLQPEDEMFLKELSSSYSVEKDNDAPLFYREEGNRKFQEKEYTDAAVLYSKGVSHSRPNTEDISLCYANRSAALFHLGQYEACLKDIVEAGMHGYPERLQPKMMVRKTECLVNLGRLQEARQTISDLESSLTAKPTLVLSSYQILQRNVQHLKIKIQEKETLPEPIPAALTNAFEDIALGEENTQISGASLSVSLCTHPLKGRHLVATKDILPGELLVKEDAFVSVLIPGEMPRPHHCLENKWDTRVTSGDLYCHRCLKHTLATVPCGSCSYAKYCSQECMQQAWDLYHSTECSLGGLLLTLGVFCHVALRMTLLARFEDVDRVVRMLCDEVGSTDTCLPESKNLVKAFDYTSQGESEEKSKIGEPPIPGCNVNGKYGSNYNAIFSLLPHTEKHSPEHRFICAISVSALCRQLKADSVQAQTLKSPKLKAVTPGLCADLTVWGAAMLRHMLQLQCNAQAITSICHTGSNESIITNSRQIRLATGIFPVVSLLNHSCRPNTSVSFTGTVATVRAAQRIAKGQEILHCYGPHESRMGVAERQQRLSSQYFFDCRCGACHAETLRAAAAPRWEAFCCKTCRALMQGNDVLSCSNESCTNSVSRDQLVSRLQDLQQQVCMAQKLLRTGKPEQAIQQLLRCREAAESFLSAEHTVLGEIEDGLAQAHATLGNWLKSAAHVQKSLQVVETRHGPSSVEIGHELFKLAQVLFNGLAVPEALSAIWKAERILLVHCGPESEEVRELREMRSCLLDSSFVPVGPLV
UniProt Q8BMK1: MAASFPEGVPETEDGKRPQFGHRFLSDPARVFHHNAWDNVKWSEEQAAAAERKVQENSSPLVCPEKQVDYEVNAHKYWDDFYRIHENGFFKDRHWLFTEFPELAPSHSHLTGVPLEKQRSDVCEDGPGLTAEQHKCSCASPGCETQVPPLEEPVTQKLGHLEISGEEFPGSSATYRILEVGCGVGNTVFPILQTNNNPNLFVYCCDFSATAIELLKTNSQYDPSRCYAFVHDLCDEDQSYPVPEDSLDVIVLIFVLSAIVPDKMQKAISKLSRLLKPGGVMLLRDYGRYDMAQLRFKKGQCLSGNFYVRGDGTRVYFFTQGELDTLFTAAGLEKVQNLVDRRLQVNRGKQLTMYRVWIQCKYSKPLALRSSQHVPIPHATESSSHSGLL
UniProt Q8BMK0: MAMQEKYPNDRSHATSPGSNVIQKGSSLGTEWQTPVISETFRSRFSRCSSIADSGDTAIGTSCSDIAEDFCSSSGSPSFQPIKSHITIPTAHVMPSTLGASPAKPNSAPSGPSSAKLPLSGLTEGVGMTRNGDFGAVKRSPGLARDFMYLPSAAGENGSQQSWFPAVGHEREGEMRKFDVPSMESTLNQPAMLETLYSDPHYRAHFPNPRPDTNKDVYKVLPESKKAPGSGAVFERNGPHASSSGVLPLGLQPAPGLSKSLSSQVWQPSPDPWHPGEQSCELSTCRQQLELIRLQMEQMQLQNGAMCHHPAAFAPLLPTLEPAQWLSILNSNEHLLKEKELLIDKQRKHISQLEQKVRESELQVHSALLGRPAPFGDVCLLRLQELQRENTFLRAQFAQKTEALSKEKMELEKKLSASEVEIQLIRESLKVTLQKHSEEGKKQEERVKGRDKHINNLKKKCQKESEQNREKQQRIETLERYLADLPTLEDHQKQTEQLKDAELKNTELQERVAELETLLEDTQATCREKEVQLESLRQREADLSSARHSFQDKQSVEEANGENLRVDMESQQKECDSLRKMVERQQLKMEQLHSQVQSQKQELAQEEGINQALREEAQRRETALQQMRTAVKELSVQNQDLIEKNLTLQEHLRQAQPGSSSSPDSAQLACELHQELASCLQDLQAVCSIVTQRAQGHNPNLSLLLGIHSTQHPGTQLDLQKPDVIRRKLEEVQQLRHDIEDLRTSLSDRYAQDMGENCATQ
UniProt Q8BST6: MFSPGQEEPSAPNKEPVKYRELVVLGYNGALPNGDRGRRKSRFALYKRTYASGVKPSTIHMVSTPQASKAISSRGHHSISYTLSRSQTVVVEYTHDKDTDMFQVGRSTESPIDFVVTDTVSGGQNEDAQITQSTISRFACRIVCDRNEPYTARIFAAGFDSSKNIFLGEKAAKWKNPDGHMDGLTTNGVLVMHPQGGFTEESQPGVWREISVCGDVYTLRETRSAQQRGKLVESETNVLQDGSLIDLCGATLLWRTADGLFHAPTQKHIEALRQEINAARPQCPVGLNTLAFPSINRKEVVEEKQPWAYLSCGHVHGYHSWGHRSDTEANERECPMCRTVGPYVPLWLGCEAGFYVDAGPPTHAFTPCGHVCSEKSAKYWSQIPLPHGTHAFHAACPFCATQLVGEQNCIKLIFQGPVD

Compound in the assay: CN[C@@H]1C[C@H]2O[C@@](C)([C@@H]1OC)n1c3ccccc3c3c4c(c5c6ccccc6n2c5c31)C(=O)NC4 [staurosporine]
The assay can be described thus: log2 fold change of tryptic peptide abundance, ligand vs vehicle (limited proteolysis) (log2 ratio); higher = more trypsin-susceptible (destabilized). To be noted: ligand concentration: 20 uM; sample: mouse liver crude lysate; replicate design: treated separately.
Consider “UniProt Q8BTG3 (peptide sequence: INAVELAEGSLEKR, peptide start residue: 90)”, for which the log2 fold change is -0.0376.
Turning to “UniProt Q8BTI7 (peptide sequence: SPLHMAAIHGR, peptide start residue: 308)”, the log2 fold change was found to be 0.701.
On to “UniProt Q8BVE8 (peptide sequence: GIGTPPNTTPIK, peptide start residue: 107)”, for which the log2 fold change turned out to be 0.526.
In the case of “UniProt Q8BI72 (peptide sequence: SSSSGSHQDSATSEGDR, peptide start residue: 187)”, the log2 fold change was -0.264.
Consider “UniProt Q8BN21 (peptide sequence: YKLPVPLPEGK, peptide start residue: 9)”, for which the log2 fold change is -0.27.
Consider “UniProt Q8BUH7 (peptide sequence: GGAPGAPQGGPR, peptide start residue: 304)”, for which the log2 fold change worked out at 0.196.
As for “UniProt Q8BIV3 (peptide sequence: AKLEGHFK, peptide start residue: 807)”, the figure is -0.359; as for “UniProt Q8BKS9 (peptide sequence: FQPDGESDESGAKK, peptide start residue: 93)”, -0.331.
As for “UniProt Q8BUY9 (peptide sequence: NYILSTQDR, peptide start residue: 296)”, the figure is 0.0817.
As for “UniProt Q8BMG7 (peptide sequence: TFLEYLEYEKDALSIR, peptide start residue: 710)”, the figure is 0.636; as for “UniProt Q8BIY1 (peptide sequence: QGWAEGQGLGSR, peptide start residue: 422)”, 0.548.
On to “UniProt Q8BK67 (peptide sequence: TARPATAGK, peptide start residue: 67)”, for which the log2 fold change is 0.255.
The value for “UniProt Q8BIG7 (peptide sequence: CLQLLRPGGVLAVLR, peptide start residue: 198)” was -0.173; that for “UniProt Q8BR07 (peptide sequence: VMLDYYR, peptide start residue: 554)” was 0.169; that for “UniProt Q8BTR5 (peptide sequence: VAPALFIGNAR, peptide start residue: 14)” was -0.342.
For “UniProt Q8BRF7 (peptide sequence: KALTDAGCNLSPLQYIK, peptide start residue: 475)”, the log2 fold change amounted to 0.309.
As for “UniProt Q8BSA9 (peptide sequence: NNPLCTHK, peptide start residue: 212)”, the figure is -0.26; as for “UniProt Q8BQS4 (peptide sequence: VHLGIADLSAK, peptide start residue: 149)”, 0.238.
As for “UniProt Q8BIJ7 (peptide sequence: EQNEVIR, peptide start residue: 366)”, the figure is -0.193; as for “UniProt Q8BSS9 (peptide sequence: TGSLIEPTISR, peptide start residue: 536)”, 0.423; as for “UniProt Q8BK03 (peptide sequence: WLSDSFK, peptide start residue: 460)”, 0.241.
Regarding “UniProt Q8BI29 (peptide sequence: GWIPTQETPPGK, peptide start residue: 426)”, the log2 fold change is -0.248.
As for “UniProt Q8BMS4 (peptide sequence: GETGALHANTSGSPSVR, peptide start residue: 349)”, the figure is -0.141.
For the target “UniProt Q8BK08 (peptide sequence: LPLHTLTSSTPVVLVR, peptide start residue: 144)”, the log2 fold change came out at 0.242.
As for “UniProt Q8BL66 (peptide sequence: GKESVSLLEK, peptide start residue: 535)”, the figure is 0.393.
Turning to “UniProt Q8BTK5 (peptide sequence: HGPSSVEIGHELFK, peptide start residue: 728)”, the log2 fold change turned out to be 0.103.
The value for “UniProt Q8BMI0 (peptide sequence: CSDEERPSTSR, peptide start residue: 797)” was -0.379.
On to “UniProt Q8BMQ8 (peptide sequence: AIYAEDHK, peptide start residue: 161)”, for which the log2 fold change stood at 0.396.
The value for “UniProt Q8BMK1 (peptide sequence: AASFPEGVPETEDGKRPQFGHR, peptide start residue: 2)” was -0.133; that for “UniProt Q8BJ90 (peptide sequence: THTGERPYACADCGTR, peptide start residue: 196)” was -0.179.
“UniProt Q8BMK0 (peptide sequence: SHATSPGSNVIQK, peptide start residue: 12)”: the log2 fold change was -0.399.
As for “UniProt Q8BUB4 (peptide sequence: GWLLTSGTDK, peptide start residue: 379)”, the figure is 0.177; as for “UniProt Q8BST6 (peptide sequence: TADGLFHAPTQK, peptide start residue: 256)”, -0.495; as for “UniProt Q8BRG8 (peptide sequence: KFQYQLACR, peptide start residue: 288)”, 0.277.
In the case of “UniProt Q8BP22 (peptide sequence: CTSGTGQISTCR, peptide start residue: 253)”, the log2 fold change is 0.527.
As for “UniProt Q8BJZ4 (peptide sequence: AAESSVAPSREELLGTK, peptide start residue: 268)”, the figure is -0.155.

The record behind these values is the supplement of paper PMC12819154, “High-throughput peptide-centric local stability assay extends protein–ligand identification to membrane proteins, tissues and bacteria” (Nature Structural & Molecular Biology, 2025).
